According to the supplement of paper PMC4604168 (melanoma cell lines):
The other results are listed elsewhere or left out. Repeats are few or missing, and single values can be far off.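 The apoptosis fraction was the count of cleaved-PARP antibody-stained nuclei relative to all DNA-stained nuclei, imaged in 1,536-well plates. Screening doses were set so most cells survived, and baseline and induced cleaved-PARP levels vary greatly across cell lines.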

Assays:
Experiment in all cases: cleaved PARP positive nuclei fraction relative to DMSO control; melanoma cells; higher = more apoptosis
Conditions in all cases: library dose: low library concentration; 72 h
COLO792 = system: COLO792
COLO800 = system: COLO800
COLO829 = system: COLO829
G361 = system: G361
IPC-298 = system: IPC-298
IST-MEL1 = system: IST-MEL1
LB2518-MEL = system: LB2518-MEL
LOXIMVI = system: LOXIMVI
MEL-HO = system: MEL-HO
MZ2-MEL = system: MZ2-MEL
MeWo = system: MeWo
RPMI7951 = system: RPMI7951
RVH-421 = system: RVH-421
SkMel28 = system: SkMel28
SkMel2 = system: SkMel2
SkMel30 = system: SkMel30
SkMel5 = system: SkMel5
UACC257 = system: UACC257
UACC62 = system: UACC62

SMILES | cleaved PARP positive nuclei fraction (COLO792) | cleaved PARP positive nuclei fraction (COLO800) | cleaved PARP positive nuclei fraction (COLO829) | cleaved PARP positive nuclei fraction (G361) | cleaved PARP positive nuclei fraction (IPC-298) | cleaved PARP positive nuclei fraction (IST-MEL1) | cleaved PARP positive nuclei fraction (LB2518-MEL) | cleaved PARP positive nuclei fraction (LOXIMVI) | cleaved PARP positive nuclei fraction (MEL-HO) | cleaved PARP positive nuclei fraction (MZ2-MEL) | cleaved PARP positive nuclei fraction (MeWo) | cleaved PARP positive nuclei fraction (RPMI7951) | cleaved PARP positive nuclei fraction (RVH-421) | cleaved PARP positive nuclei fraction (SkMel28) | cleaved PARP positive nuclei fraction (SkMel2) | cleaved PARP positive nuclei fraction (SkMel30) | cleaved PARP positive nuclei fraction (SkMel5) | cleaved PARP positive nuclei fraction (UACC257) | cleaved PARP positive nuclei fraction (UACC62)
Nc1cccc2c1CN(C1CCC(=O)NC1=O)C2=O (configuration not stated) [lenalidomide] + NC(=O)Nc1cc(-c2cccc(F)c2)sc1C(=O)N[C@H]1CCCNC1 [AZD7762] (first compound 1 µM, partner dose 0.02 µM) | 98.6% | 95.3% | 96.7% | 96.8% | 43.6% | 732% | 14.9% | 44.3% | 145% | 72.5% | 47.5% | 98.9% | 42.5% | 27.4% | 134% | 62.2% | 30.5% | 50.8% | 329%
CC(=O)c1c(C)c2cnc(Nc3ccc(N4CCNCC4)cn3)nc2n(C2CCCC2)c1=O [palbociclib] + C=CCn1c(=O)c2cnc(Nc3ccc(N4CCN(C)CC4)cc3)nc2n1-c1cccc(C(C)(C)O)n1 [MK1775] (first compound 0.04 µM, partner dose 0.02 µM) | 94.9% | 104% | 109% | 109% | 47.4% | 113% | 128% | 119% | 42% | 150% | 60.2% | 144% | 123% | 48.6% | 81.1% | 124% | 103% | 181% | 131%
C#Cc1cccc(Nc2ncnc3cc(OCCOC)c(OCCOC)cc23)c1 [erlotinib] + O=C(O)c1ccc(-c2c[nH]c3ncc(-c4ccccc4)cc23)cc1C1CCCC1 [GSK650394] (first compound 0.8 µM, partner dose 0.16 µM) | 152% | 86.5% | 150% | 60.2% | 97.6% | 67.9% | 174% | 669% | 52.8% | 84.9% | 119% | 68.7% | 89.2% | 63.1% | 135% | 76.9% | 77.7% | 159% | 97%
Cn1c(Nc2ccc(C(F)(F)F)cc2)nc2cc(Oc3ccnc(-c4ncc(C(F)(F)F)[nH]4)c3)ccc21 + CN(NC(=O)CC(=O)NN(C)C(=S)c1ccccc1)C(=S)c1ccccc1 [STA4783] (first compound 0.08 µM, partner dose 0.006 µM) | 216% | 164% | 104% | 184% | 173% | 175% | 82.6% | 106% | 94.2% | 114% | 251% | 160% | 82.4% | 97.7% | 161% | 122% | 52.3% | 597% | 216%
C=CCn1c(=O)c2cnc(Nc3ccc(N4CCN(C)CC4)cc3)nc2n1-c1cccc(C(C)(C)O)n1 + Cc1ccc(NC(=O)c2cccc(N(C)C)c2)cc1NC(=O)c1ccc(O)cc1 [ZM336372] (first compound 0.02 µM, partner dose 2 µM) | 87.4% | 39.6% | 152% | 80.5% | 217% | 47.7% | 53.2% | 41% | 161% | 108% | 139% | 50.3% | 91.7% | 62.9% | 99.2% | 82.2% | 84.7% | 60.8% | 132%
CO[C@@H]1[C@H](N(C)C(=O)c2ccccc2)C[C@H]2O[C@]1(C)n1c3ccccc3c3c4c(c5c6ccccc6n2c5c31)C(=O)NC4 [Midostaurin] + O=C(O)c1ccc(-c2c[nH]c3ncc(-c4ccccc4)cc23)cc1C1CCCC1 [GSK650394] (first compound 0.08 µM, partner dose 0.16 µM) | 110% | 71.7% | 152% | 223% | 47.3% | 101% | 239% | 91% | 77.3% | 111% | 210% | 34.9% | 41.8% | 79.5% | 104% | 127% | 121% | 66.1% | 46.8%
Cc1ccc(NC(=O)c2cccc(N(C)C)c2)cc1NC(=O)c1ccc(O)cc1 + COc1cc2c(Oc3ccc4[nH]c(C)cc4c3F)ncnc2cc1OCCCN1CCCC1 [cediranib] (first compound 2 µM, partner dose 0.4 µM) | 68.1% | 153% | 94% | 133% | 81.1% | 94.8% | 191% | 41.5% | 75.2% | 173% | 140% | 43.8% | 114% | 64% | 75.8% | 76.6% | 203% | 33.7% | 73.9%
OCCn1cc(-c2cnc3nnn(Cc4ccc5ncccc5c4)c3n2)cn1 + NCC(=O)Nc1ccc(-n2nc(C(F)(F)F)cc2-c2ccc3c(ccc4ccccc43)c2)cc1 [OSU03012] (first compound 1 µM, partner dose 1 µM) | 25.9% | 138% | 104% | 146% | 69.2% | 109% | 96.3% | 20.6% | 73% | 78.5% | 191% | 191% | 189% | 128% | 128% | 115% | 255% | 86.8% | 31.2%
